PubChem BioAssay AID445 (National Center for Advancing Translational Sciences (NCATS), 2006)
Some of the results follow. Shown are side measurements of this screen, not its main read-out; they come without a call. Most of these compounds were active or inconclusive in the main read-out, so they are no random draw. Potencies come from curve fits of mixed quality, noted in brackets.

Assay: IkB Signaling
Conditions: ABC-DLBCL IkBa-CBG/CBR dual luciferase ratio (green luciferase fused to IkBa over red control in OCI-Ly3 lymphoma cells), 4 h
Outline: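 In this assay, an IκBα–CBG68 fusion accumulates when IKK-driven degradation is blocked; native CBR normalizes for cell number. OCI-Ly3 cells were treated 4 h with compound and doxycycline, then green and red light read after Chroma-Glo addition.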

[1] = measured here: IkB-luc green channel
[2] = measured here: control luc red channel
[3] = measured here: control luc red channel unless noted

## O=S(=O)(Nc1cccc2ncccc12)c1cccs1
[1]
  AC50: 0.794 µM [rising, full curve]
[2]
  AC50: 0.794 µM [rising, full curve]

## COc1ccccc1CCNC(=O)CCn1c(=O)c2cccn2c2ccc(F)cc21
[3]
  AC50: 10 µM [falling, partial curve]

## CCOc1cc(C(=O)Nc2ccc3oc(-c4ccc(CC)cc4)nc3c2)cc(OCC)c1OCC
[3]
  AC50: 10 µM [falling, partial curve]

## O=C(CCc1nc(-c2ccccc2F)no1)Nc1cccc(C(F)(F)F)c1
[3]
  AC50: 31.6 µM [falling, single point]

## Cc1ccc(C)c(N2CCN(C(=O)c3cccc(-n4c(C)nc5cccnc54)c3)CC2)c1
[3]
  AC50: 12.6 µM [falling, partial curve]

## Cc1ccc(CC(=O)N(Cc2nc(-c3ccc(C)cc3)no2)C(C)C)cc1
[3]
  AC50: 12.6 µM [falling, partial curve]

## O=C(CN1C(=O)c2cccc3cccc1c23)N1CCN(Cc2ccc3c(c2)OCO3)CC1
[3]
  AC50: 31.6 µM [falling, partial curve]

## O=C(Nc1ccn(-c2ccccc2)n1)c1ccc(S(=O)(=O)N2CCCCCC2)cc1
[3]
  AC50: 3.16 µM [falling, full curve, poor fit]

## CCOc1ccc(OCC)c(NC(=O)c2cc(C)nc3c2c(C)nn3-c2cccc(Cl)c2C)c1
[3]
  AC50: 0.00794 µM [falling, full curve, poor fit]

## CC1CCc2nc(NC(=O)CSc3nc4ccccc4o3)sc2C1 (stereo not given)
[3]
  AC50: 1.58 µM [falling, full curve, poor fit]

## COCCCNc1ncnc2c1c(-c1ccccc1)cn2-c1ccc(C)c(Cl)c1
[3]
  AC50: 25.1 µM [falling, single point]

## CCn1c(CN2CCN(c3cccc(Cl)c3)CC2)nc2c1c(=O)[nH]c(=O)n2C
[3]
  AC50: 39.8 µM [falling, single point]

## O=C(COc1ccc(Cl)cc1)Nc1cc(-c2ccccc2)no1
[3]
  AC50: 3.16 µM [rising, single point]

## C[C@@H]1C[C@H]2[C@@H]3CCC4=CC(=O)C=C[C@]4(C)[C@@]3(F)[C@@H](O)C[C@]2(C)[C@@]1(O)C(=O)CO
[1]
  AC50: 0.00316 µM [rising, full curve, poor fit]
[2]
  AC50: 0.0158 µM [rising, full curve, poor fit]

## COc1ccc(OC)c(NC(=O)CN2C(=O)CC(c3ccco3)Sc3ccccc32)c1 (stereo not given)
[3]
  AC50: 20 µM [falling, single point]

## Cc1ccc(N2CC(c3nnc(Cc4ccc(Cl)cc4)o3)CC2=O)cc1 (stereo not given)
[3]
  AC50: 20 µM [falling, single point]

## CNS(=O)(=O)c1cn(CC(=O)Nc2ccc(F)cc2F)cc1S(=O)(=O)NC
[3]
  AC50: 39.8 µM [rising, partial curve]

## COC(=O)c1ccccc1NC(=O)CN1CCC(n2nnc3cc(F)ccc32)CC1
[3]
  AC50: 2 µM [falling, full curve]

## Cc1cccc(C(=O)Nc2ccc(-c3nc4ccccc4s3)c(C)c2)c1
[3]
  AC50: 3.98 µM [rising, partial curve, poor fit]

## COc1ccc(N2CCN(CC(O)COc3ccccc3C(C)(C)C)CC2)cc1 (stereo not given)
[3]
  AC50: 31.6 µM [falling, partial curve]

## Cc1ccc(C(=O)Nc2cccc(C(=O)OCc3cc(=O)n4c5c(sc4n3)CCCC5)c2)cc1
[3]
  AC50: 0.501 µM [falling, full curve]

## Cc1ccc(NC(=O)C2CCCN(S(=O)(=O)c3cccc4cccnc34)C2)cc1Cl (stereo not given)
[3]
  AC50: 39.8 µM [falling, single point]

## Cc1ccc2[nH]cc(C(c3ccccc3)c3cccs3)c2c1 (stereo not given)
[3]
  AC50: 39.8 µM [falling, single point]

## Cc1ccc(-c2nc(-c3nccc4ccccc34)oc2-c2ccccc2)cc1
[3]
  AC50: 3.16 µM [falling, partial curve]

## CCCCN(CC)C(=O)Cn1c(=O)n(-c2ccc(OCC)cc2)c(=O)c2c3c(sc21)CCC3
[3]
  AC50: 39.8 µM [falling, single point]

## Cc1ccccc1NC(=O)c1ccccc1O
[3]
  AC50: 25.1 µM [falling, single point]

## Cc1ccc(C2CCN(C(=O)c3cnn(-c4ccccc4Cl)c3C3CCN(C(=O)OC(C)(C)C)CC3)C2)cc1 (stereo not given)
[3]
  AC50: 12.6 µM [falling, partial curve]

## O=C(Nc1cccc(C(=O)OCc2cc(=O)n3c4c(sc3n2)CCCC4)c1)c1ccccc1
[3]
  AC50: 1 µM [falling, full curve]

## O=C(c1nc2ccccc2s1)N1CCN(c2ccccn2)CC1
[3]
  AC50: 10 µM [falling, partial curve]

## O=c1[nH]c(-c2cccs2)nc2ccccc12
[3]
  AC50: 20 µM [falling, partial curve]

## CCOc1ccc(S(=O)(=O)Nc2nc3ccccc3nc2Nc2ccc(OC)cc2)cc1
[3]
  AC50: 3.16 µM [falling, partial curve]

## COc1ccc(NC(=O)CCc2nnc3n(CC(C)C)c(=O)c4ccccc4n23)cc1
[3]
  AC50: 39.8 µM [falling, single point]

## COCC(C)NC(=O)c1cc(-c2cccc(OC)c2)on1 (stereo not given)
[3]
  AC50: 10 µM [falling, partial curve]

## CCc1ccccc1NC(=O)C1CCCN(c2ncnc3onc(C)c23)C1 (stereo not given)
[3]
  AC50: 31.6 µM [falling, partial curve, poor fit]

## O=S(=O)(Cc1nc2ccccc2s1)c1ccccc1
[3]
  AC50: 39.8 µM [falling, single point]

## Cc1ccc(Cl)cc1-n1ncc2c(Nc3cccc(C)c3C)ncnc21
[3]
  AC50: 25.1 µM [falling, partial curve]

## O=C(c1ccc(CSc2nc3ccncc3n2Cc2ccccc2)cc1)N1CCCCCC1
[3]
  AC50: 12.6 µM [falling, partial curve]

## Cc1cnn(C(=S)NCc2ccc(Cl)cc2)c1
[3]
  AC50: 20 µM [falling, partial curve]

## CCc1nn2c(=O)cc(COC(=O)c3ccccc3NC(=O)C3CCCCC3)nc2s1
[3]
  AC50: 39.8 µM [falling, single point]

## CCc1ccc(CNCc2c(C(=O)O)n(Cc3ccc(F)cc3Cl)c3cc(OC)ccc23)cc1
[3]
  AC50: 7.94 µM [falling, partial curve]

## COc1cc2ccccc2cc1C(=O)N1CCN(c2nc3ccc(F)cc3s2)CC1
[3]
  AC50: 15.8 µM [falling, partial curve]

## COc1cc(CCC(=O)NCc2ccc3c(c2)CCN3C(=O)c2ccc(F)cc2)cc(OC)c1OC
[3]
  AC50: 0.01 µM [falling, full curve]

## CCOC(=O)c1ccc(N2C(=O)C3C(C2=O)C(C(=O)c2ccc(Cl)cc2)N2CCCC32)cc1 (stereo not given)
[3]
  AC50: 12.6 µM [falling, partial curve]

## CSC1CCCCC1(O)CSc1nc2ccccc2o1 (stereo not given)
[3]
  AC50: 39.8 µM [falling, single point]

## CCOC(=O)c1c(C)n(C)c2ccc(OCC(O)Cn3c(C)nc4ccccc43)cc12 (stereo not given)
[3]
  AC50: 10 µM [falling, partial curve]

## CSc1ccccc1NC(=O)COc1ccc(S(=O)(=O)N2CCCC2)cc1
[3]
  AC50: 12.6 µM [falling, partial curve]

## CC(=O)c1ccc(NC(=O)c2ccc(-c3nc(CSc4ccccc4)c(C)o3)cc2)cc1
[3]
  AC50: 1.26 µM [falling, partial curve]

## Cn1c(=O)c2c(nc(Br)n2CCCc2ccccc2)n(C)c1=O
[3]
  AC50: 20 µM [falling, partial curve]

## CSc1ccc(-c2nc(CSCC(=O)N3CCOCC3)c(C)o2)cc1
[3]
  AC50: 12.6 µM [falling, partial curve]

## Fc1ccc(-c2noc3ncnc(NCC4CCN(Cc5ccc(Cl)cc5)CC4)c23)cc1
[3]
  AC50: 20 µM [falling, single point]

## CCN1CCN(S(=O)(=O)c2cc(OCC(=O)NC3CCCCC3)c(C)cc2Cl)CC1
[3]
  AC50: 2 µM [falling, full curve]

## COc1cc(OC)cc(-c2nnc(SCC(=O)N(Cc3ccccc3)C(C)(C)C)o2)c1
[3]
  AC50: 25.1 µM [falling, partial curve]

## COc1cc(NC(=O)c2cc(C)nc3c2c(C)nn3-c2ccccc2Cl)cc(OC)c1
[3]
  AC50: 39.8 µM [falling, single point]

## Cc1ccc(C(=O)Nc2ccc(S(=O)(=O)N3CCc4ccccc4C3)cc2)o1
[3]
  AC50: 10 µM [falling, partial curve]

## Cc1cc(C)c2nc(N3CCC(C(=O)N4CCCC4)CC3)sc2c1
[3]
  AC50: 12.6 µM [falling, partial curve]

## Cc1ccc2cc3c(N)nn(C(=O)c4cccc(F)c4)c3nc2c1
[3]
  AC50: 39.8 µM [falling, single point]

## COc1ccc(CCNC(=O)c2cnc3sc(N4CCCC4)nn3c2=O)cc1OC
[3]
  AC50: 25.1 µM [falling, single point]

## CSCCC(NS(=O)(=O)c1ccc2c(c1)oc(=O)n2C)C(=O)N1CCN(c2cccc(Cl)c2)CC1 (stereo not given)
[3]
  AC50: 10 µM [falling, partial curve]

## Cc1ccc(CN(Cc2ccco2)C(=O)COc2ccc(Cl)cc2)o1
[3]
  AC50: 39.8 µM [falling, single point]

## COc1cc(NC(=O)c2cc3ccccn3n2)cc(OC)c1OC
[3]
  AC50: 0.631 µM [rising, partial curve]

## COc1ccc(N2CCN(C(=O)c3cccc(NC(=O)c4nsc5ccccc45)c3)CC2)cc1
[3]
  AC50: 0.631 µM [rising, full curve, poor fit]

## CCOC(=O)c1ccc(NC(=O)Nc2cc3c(cc2N2CCCC2)n(C)c(=O)n3C)cc1
[3]
  AC50: 39.8 µM [falling, single point]

## COC(=O)c1cc(NC(=O)c2nn(C)c3c2COc2ccccc2-3)cc(C(=O)OC)c1
[3]
  AC50: 12.6 µM [falling, partial curve]
